Measured values published in US20090311237A1, “Combination therapy using a soluble hyaluronidase and a bisphosphonate” (priority 2008, published 2009).
Several values for one entry are separate records, joined by “and”; a condition that tells them apart may be missing. Equal entries are not always repeated. For some assays here: The name of at least one read-out is uncertain. For some assays here: At least one structure is not confirmed: it was looked up by name or label, or the drawing left a doubt.

Columns and labels:
[1] = patients with low-impact hip fracture; annual infusion of 5 mg; cited from earlier work
[2] = Phase 1 Stage 1 clinical pharmacokinetics of SC ZA co-administered with rHuPH20; type: in vivo, human; details: individual subjects
Description: A pharmacokinetic study of zoledronic acid (ZA) co-administered with rHuPH20 in human subjects was conducted. The primary objective of the study was to determine the bioavailability of zoledronic acid dosed via subcutaneous (SC) co-administration with human recombinant hyaluronidase PH20 (rHuPH20). […] The patients were administered the prescribed dosage formulations as follows: Cohorts 1-5 were administered a single subcutaneous infusion in a dosage volume of 100 ml at a rate of 3 mL/min. […] The dosing solution is administered via needle or catheter into the SC space of the left anterior thigh (midway between the anterior iliac crest and the cephalad border of the patella). For cohorts 1-5, the dosing solutions were administered by a controlled rate infusion pump at approximately 3 mL/minute. […] The dosing solutions were administered by syringe push bolus injection. […] Serum concentration of ZA was determined using a qualified LC-MS-MS assay after derivatization with diazomethane (Zhu, L S et al. (2006) Rapid Commun. […] The assay range was from 2.0 to 400 ng/mL with a lower limit of quantitation (LLOQ) at 2.0 ng/mL. […] Non-compartmental analysis was used for derivation of primary and secondary pharmacokinetic (PK) parameters. […] Summary statistics (mean, standard deviation, and median) were calculated using JMP or Microsoft Excel.

[3] = ZA 0.25 mg SC + 24000 U rHuPH20

For `O=P(O)(O)C(O)(Cn1ccnc1)P(=O)(O)O` [ZA, 1-hydroxy-2-(1H-imidazol-1-yl)ethylidene-1,1-bisphosphonic acid], the non-vertebral fracture risk [1] is listed as 7.6%, the “reduction of risk of any fracture” value [1] is listed as 35% and the “risk of any fracture” value [1] is listed as 8.6%. For the same molecule, the vertebral fracture risk [1] was 1.7%, the Vss/F [2, 3] was 0.43343 L/kg and 0.36378 L/kg and the Vz/F [2, 3] was 0.36327 L/kg and 0.32669 L/kg. For the same molecule, the Vss/F ([2]; ZA 0.5 mg SC + 24000 U rHuPH20) was 0.42254 L/kg and 0.3457 L/kg, the Vz/F ([2]; ZA 0.5 mg SC + 24000 U rHuPH20) was 0.42795 L/kg and 0.33897 L/kg and the Vss/F ([2]; ZA 1 mg SC + 24000 U rHuPH20) was 0.56617 L/kg and 1.00159 L/kg. For the same molecule, the Vz/F ([2]; ZA 1 mg SC + 24000 U rHuPH20) was 1.71221 L/kg and 2.04522 L/kg, the Vss/F ([2]; ZA 2 mg SC + 24000 U rHuPH20) was 0.76507 L/kg and 1.28355 L/kg and the Vz/F ([2]; ZA 2 mg SC + 24000 U rHuPH20) was 2.26962 L/kg and 3.85264 L/kg. The Vss/F ([2]; ZA 5 mg SC + 24000 U rHuPH20) was 1.53164 L/kg and 1.20699 L/kg and the Vz/F ([2]; ZA 5 mg SC + 24000 U rHuPH20) was 3.91399 L/kg and 3.58342 L/kg.
